Measured values as given in the supplement of paper PMC9549374.
The other results are listed elsewhere or left out. Rule as the data show it: active = 2-fold of DMSO or more and inactive = the rest. Single values of this set are uncertain. Some low values are a fixed figure set by the source, not a measured ratio.

Each compound was assayed on CM7/1-hgem mouse ES cell-derived cardiomyocytes (assay: maximal number of mAG-hGem(1/110)-positive cardiomyocytes over 96 h, fold-change vs DMSO; higher = more cardiomyocyte cell cycle activity). Conditions: 1 µM; 96 (max over 12 h time points) h.

Row | SMILES | maximal number
1 | C=C1C[C@]23C[C@@]1(O)CC[C@H]2[C@@]12C=C[C@H](O)[C@@](C)(C(=O)O1)[C@H]2[C@@H]3C(=O)O | inactive: 1
2 | Cc1c(-c2cnccn2)ssc1=S | inactive: 1
3 | O=C(O)CCNC(=O)c1ccc(/N=N/c2ccc(O)c(C(=O)O)c2)cc1 | inactive: 0
4 | C[C@@H](c1ncncc1F)[C@](O)(Cn1cncn1)c1ccc(F)cc1F | inactive: 1
5 | CC(=O)Oc1cc2c(s1)CCN(C(C(=O)C1CC1)c1ccccc1F)C2 (configuration not stated) | inactive: 1
6 | CC(C)Cc1ccc([C@H](C)C(=O)O)cc1 | inactive: 1
7 | COc1cc(OC)c(C(C)=O)c(O)c1C | inactive: 1
8 | C=C(C)[C@@H]1CC[C@]2(CO)CC[C@]3(C)[C@H](CC[C@@H]4[C@@]5(C)CC[C@H](O)C(C)(C)[C@@H]5CC[C@]43C)[C@@H]12 | inactive: 0.5
9 | COc1ccc2c(c1OC)OC[C@@H](c1ccc(OC)c(OC)c1OC)C2 | inactive: 1
10 | O=c1c(-c2cc(O)c(O)c(O)c2)coc2cc(O)c(O)c(O)c12 | inactive: 1
11 | CC(=O)Nc1ccc(C(=O)O)cc1 | active: 3
12 | CC(N/C(=N\C#N)Nc1ccncc1)C(C)(C)C (configuration not stated) | inactive: 1
13 | CC1(C)OC(=O)C(OCC2CC2)=C1c1ccc(S(C)(=O)=O)cc1 | inactive: 1
14 | O=C(/C=C/c1ccccc1)c1ccc(O[C@@H]2O[C@H](CO)[C@@H](O)[C@H](O)[C@H]2O)cc1O | inactive: 0.5
15 | CC(=O)O[C@H]1CC[C@@]2(C)[C@@H](CC[C@@H]3[C@@H]2CC(=O)[C@]2(C)[C@@H]4[C@H](C[C@@H]32)O[C@]2(CC[C@@H](C)CO2)[C@H]4C)C1 | inactive: 1
16 | COc1cc(O)c(C(=O)c2ccccc2)cc1O | inactive: 1
17 | FC(F)(Cl)C(F)(F)Cl | inactive: 1
18 | CCN1CCCC1CNC(=O)c1cc(S(=O)(=O)CC)c(N)cc1OC (configuration not stated) | inactive: 1
19 | O=c1cc(-c2ccccc2)oc2cc(O)c(O)c(O)c12 | inactive: 1

Row | SMILES | maximal number
20 | COc1c(O)cc(O)cc1O | inactive: 1
21 | O=C(O)c1cc(O)c(O)c(O)c1 | inactive: 0
22 | CCOC(=O)[C@H](CCc1ccccc1)N[C@@H](C)C(=O)N1CC2(C[C@H]1C(=O)O)SCCS2 | inactive: 1
23 | CCCCC[C@H](CC(=O)O)C(=O)O | inactive: 1
24 | CC1(C)CC[C@]2(C)CC[C@]3(C)C(=CC[C@@H]4[C@@]5(C)CC[C@H](O)C(C)(C)[C@@H]5CC[C@]43C)[C@@H]2C1 [beta-AMYRIN] | inactive: 0
25 | CC(C)CCCC(C)C1CCC2C3CCC4CCCCC4(C)C3CCC12C (configuration not stated) | inactive: 1
26 | COc1ccc([C@@H](C)C(=O)c2ccc(O)cc2O)cc1 | inactive: 1
27 | O=c1c(O)c(-c2ccccc2)oc2cc(O)ccc12 | inactive: 1
28 | CC(C)=CCC[C@@H](C)[C@H]1CC[C@@]2(C)C3=C(CC[C@]12C)[C@@]1(C)CC[C@H](O)C(C)(C)[C@@H]1CC3 | inactive: 1
29 | COc1cc2c(cc1-c1coc3c4c(c(OC)cc3c1=O)OC(C)(C)C=C4)OCO2 | inactive: 1
30 | CC(=O)O[C@H]1C[C@@H](OC(C)=O)C(C)(C)[C@@H]2C[C@@H](OC(C)=O)[C@]3(C)[C@H](CC[C@@]4(C)[C@H](c5ccoc5)OC(=O)[C@H]5O[C@@]534)[C@@]12C | inactive: 1
31 | C/C=N/N(C)C=O | inactive: 1
32 | C=CC(C1=CC(=O)C(OC)=CC1=O)c1ccccc1 (configuration not stated) | inactive: 1
33 | CC12CCCC(O)(C1)C1CC(C)(C)C1CC2 (stereo not drawn) [beta-CARYOPHYLLENE ALCOHOL] | inactive: 1
34 | CC(S)C(=O)NCC(=O)O (configuration not stated) | inactive: 1
35 | O=c1c(O)cccc2cc(O)c(O)c(O)c12 | inactive: 0
36 | O=C(O)CCC(=O)c1ccc(-c2ccccc2)cc1 | inactive: 0
37 | COc1cc(OC)cc(OC)c1 | inactive: 1

Retrieved by structure from the entries so far, three records:
Row | SMILES | maximal number
25 | CC(C)CCCC(C)C1CCC2C3CCC4CCCCC4(C)C3CCC12C (configuration not stated) | inactive: 1
31 | C/C=N/N(C)C=O | inactive: 1
30 | CC(=O)O[C@H]1C[C@@H](OC(C)=O)C(C)(C)[C@@H]2C[C@@H](OC(C)=O)[C@]3(C)[C@H](CC[C@@]4(C)[C@H](c5ccoc5)OC(=O)[C@H]5O[C@@]534)[C@@]12C | inactive: 1
